Test results from the supplement of paper PMC10849652.
The other results are listed elsewhere or left out.

The chains behind the UniProt entries cited, without tags or fusion partners. Where a name states a change or a piece, a line headed by the entry shows the natural chain unless it says otherwise.
UniProt Q15652: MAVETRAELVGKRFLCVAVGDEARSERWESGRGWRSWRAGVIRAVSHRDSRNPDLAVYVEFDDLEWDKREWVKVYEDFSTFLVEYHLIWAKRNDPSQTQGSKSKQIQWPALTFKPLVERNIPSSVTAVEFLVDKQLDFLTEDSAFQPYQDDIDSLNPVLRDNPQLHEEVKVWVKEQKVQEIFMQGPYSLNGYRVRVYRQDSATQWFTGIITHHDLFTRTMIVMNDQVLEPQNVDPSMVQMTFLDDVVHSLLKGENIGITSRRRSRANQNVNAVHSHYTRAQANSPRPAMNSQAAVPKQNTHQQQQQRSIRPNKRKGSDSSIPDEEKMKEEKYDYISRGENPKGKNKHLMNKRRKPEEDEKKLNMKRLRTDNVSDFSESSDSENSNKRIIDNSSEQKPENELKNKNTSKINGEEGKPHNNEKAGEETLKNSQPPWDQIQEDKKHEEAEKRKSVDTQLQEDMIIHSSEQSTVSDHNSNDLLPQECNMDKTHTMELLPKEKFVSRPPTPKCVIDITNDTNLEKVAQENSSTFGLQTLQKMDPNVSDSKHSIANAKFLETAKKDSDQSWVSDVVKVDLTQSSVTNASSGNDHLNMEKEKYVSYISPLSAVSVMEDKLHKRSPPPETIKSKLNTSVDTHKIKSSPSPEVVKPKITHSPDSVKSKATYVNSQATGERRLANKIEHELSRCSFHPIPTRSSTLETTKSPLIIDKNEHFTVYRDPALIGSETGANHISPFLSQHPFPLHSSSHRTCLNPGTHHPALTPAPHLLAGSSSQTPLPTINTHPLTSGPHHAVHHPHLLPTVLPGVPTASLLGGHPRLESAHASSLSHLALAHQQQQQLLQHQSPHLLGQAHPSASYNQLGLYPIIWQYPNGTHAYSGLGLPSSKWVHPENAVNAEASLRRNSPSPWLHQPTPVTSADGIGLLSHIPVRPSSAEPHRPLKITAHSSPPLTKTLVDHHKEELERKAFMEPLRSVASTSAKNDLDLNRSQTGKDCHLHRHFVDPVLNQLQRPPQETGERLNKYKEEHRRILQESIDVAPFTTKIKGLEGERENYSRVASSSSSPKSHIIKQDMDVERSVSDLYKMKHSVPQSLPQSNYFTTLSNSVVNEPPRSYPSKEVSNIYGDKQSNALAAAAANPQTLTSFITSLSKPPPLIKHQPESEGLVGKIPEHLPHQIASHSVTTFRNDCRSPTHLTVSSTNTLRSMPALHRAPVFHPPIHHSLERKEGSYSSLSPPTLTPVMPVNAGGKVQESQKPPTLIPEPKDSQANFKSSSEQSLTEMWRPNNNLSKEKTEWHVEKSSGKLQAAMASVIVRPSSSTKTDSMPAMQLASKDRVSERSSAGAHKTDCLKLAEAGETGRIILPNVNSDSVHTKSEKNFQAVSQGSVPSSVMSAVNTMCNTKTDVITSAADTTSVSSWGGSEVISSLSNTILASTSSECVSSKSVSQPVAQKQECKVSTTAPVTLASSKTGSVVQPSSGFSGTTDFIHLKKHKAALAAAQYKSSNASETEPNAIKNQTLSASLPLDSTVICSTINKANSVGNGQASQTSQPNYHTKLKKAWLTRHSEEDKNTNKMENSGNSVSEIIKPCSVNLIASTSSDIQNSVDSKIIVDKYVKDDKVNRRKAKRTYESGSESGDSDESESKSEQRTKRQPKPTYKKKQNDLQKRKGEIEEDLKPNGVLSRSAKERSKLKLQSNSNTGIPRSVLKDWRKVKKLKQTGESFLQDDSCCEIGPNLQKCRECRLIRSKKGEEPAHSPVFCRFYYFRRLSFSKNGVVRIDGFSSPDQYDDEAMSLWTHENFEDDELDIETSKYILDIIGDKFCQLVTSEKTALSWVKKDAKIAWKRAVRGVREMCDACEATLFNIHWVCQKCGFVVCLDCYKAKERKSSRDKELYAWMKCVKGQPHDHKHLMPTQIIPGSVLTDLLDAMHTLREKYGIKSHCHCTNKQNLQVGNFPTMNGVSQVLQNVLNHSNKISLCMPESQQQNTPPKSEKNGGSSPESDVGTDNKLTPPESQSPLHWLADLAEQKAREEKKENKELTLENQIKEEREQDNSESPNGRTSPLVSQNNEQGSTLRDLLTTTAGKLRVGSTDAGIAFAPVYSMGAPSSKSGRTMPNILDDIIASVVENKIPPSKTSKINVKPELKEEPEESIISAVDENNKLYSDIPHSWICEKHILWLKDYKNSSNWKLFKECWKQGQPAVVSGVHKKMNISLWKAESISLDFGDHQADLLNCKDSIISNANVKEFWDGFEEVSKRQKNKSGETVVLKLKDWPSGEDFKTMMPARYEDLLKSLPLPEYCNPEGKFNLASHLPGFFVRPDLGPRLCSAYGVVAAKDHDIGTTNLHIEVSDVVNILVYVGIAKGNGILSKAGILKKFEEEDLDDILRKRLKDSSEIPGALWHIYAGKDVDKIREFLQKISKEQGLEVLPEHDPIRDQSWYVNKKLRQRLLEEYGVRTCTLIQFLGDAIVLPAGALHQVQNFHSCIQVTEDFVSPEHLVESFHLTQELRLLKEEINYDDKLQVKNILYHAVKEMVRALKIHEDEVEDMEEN
UniProt Q96AT1: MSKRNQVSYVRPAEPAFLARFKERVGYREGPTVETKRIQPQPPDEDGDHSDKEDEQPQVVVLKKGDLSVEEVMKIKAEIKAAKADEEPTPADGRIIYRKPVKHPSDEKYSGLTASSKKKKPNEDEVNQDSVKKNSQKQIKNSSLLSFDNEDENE
UniProt O76095: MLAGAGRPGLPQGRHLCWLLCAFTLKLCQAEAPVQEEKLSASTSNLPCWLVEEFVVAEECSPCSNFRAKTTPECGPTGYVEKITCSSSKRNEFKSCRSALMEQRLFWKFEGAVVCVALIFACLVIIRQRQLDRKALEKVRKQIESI
UniProt Q9NVR0: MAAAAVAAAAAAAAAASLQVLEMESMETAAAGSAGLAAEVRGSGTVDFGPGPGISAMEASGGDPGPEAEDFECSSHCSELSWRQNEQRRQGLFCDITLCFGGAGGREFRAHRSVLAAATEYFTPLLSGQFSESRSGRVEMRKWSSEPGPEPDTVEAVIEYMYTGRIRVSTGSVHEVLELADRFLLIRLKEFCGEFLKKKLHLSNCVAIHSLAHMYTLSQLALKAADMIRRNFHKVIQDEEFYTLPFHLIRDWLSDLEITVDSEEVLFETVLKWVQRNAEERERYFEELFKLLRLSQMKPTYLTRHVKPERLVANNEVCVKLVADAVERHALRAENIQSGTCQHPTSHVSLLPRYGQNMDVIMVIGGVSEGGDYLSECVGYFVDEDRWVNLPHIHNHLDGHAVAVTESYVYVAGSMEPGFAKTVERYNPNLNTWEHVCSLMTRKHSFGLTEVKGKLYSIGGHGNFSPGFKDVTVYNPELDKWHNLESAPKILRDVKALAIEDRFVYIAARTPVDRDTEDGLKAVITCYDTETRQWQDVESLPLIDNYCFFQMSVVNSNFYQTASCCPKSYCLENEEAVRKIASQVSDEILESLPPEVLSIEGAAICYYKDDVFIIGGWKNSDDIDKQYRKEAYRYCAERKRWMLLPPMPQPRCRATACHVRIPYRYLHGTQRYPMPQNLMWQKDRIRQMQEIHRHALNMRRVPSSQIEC
UniProt P17535: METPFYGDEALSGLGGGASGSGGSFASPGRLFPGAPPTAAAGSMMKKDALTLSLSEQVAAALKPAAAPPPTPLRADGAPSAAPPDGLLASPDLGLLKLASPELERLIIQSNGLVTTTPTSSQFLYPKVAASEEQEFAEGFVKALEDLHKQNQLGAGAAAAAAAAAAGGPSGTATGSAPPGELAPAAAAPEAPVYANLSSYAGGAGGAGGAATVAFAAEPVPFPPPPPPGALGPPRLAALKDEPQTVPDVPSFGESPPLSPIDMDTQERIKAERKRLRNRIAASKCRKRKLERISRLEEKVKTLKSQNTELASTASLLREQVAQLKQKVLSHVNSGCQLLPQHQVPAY
UniProt Q96A73: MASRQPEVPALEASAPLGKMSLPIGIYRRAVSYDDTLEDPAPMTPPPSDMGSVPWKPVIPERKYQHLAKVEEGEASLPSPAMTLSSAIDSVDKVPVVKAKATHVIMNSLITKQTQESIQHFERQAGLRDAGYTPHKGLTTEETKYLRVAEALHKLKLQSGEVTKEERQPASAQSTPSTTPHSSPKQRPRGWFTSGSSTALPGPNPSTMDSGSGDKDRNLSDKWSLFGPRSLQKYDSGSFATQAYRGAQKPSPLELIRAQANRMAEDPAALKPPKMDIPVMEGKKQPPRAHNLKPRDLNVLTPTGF
UniProt Q8N371: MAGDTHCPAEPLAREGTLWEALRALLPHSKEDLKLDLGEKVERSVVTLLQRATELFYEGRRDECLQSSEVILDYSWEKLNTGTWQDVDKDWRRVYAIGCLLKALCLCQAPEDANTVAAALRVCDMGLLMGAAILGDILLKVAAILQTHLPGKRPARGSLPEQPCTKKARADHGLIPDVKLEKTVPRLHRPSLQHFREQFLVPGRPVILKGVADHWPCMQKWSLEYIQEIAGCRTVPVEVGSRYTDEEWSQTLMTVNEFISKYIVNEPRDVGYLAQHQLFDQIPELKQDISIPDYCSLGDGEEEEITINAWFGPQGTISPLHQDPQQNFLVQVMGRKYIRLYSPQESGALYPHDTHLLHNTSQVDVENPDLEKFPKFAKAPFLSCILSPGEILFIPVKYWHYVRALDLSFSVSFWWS
UniProt Q9H910: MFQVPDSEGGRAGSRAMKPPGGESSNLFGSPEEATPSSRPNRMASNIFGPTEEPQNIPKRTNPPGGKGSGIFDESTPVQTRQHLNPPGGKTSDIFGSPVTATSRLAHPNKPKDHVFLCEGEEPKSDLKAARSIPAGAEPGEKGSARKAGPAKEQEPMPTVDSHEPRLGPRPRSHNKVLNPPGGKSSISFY
UniProt Q9P206: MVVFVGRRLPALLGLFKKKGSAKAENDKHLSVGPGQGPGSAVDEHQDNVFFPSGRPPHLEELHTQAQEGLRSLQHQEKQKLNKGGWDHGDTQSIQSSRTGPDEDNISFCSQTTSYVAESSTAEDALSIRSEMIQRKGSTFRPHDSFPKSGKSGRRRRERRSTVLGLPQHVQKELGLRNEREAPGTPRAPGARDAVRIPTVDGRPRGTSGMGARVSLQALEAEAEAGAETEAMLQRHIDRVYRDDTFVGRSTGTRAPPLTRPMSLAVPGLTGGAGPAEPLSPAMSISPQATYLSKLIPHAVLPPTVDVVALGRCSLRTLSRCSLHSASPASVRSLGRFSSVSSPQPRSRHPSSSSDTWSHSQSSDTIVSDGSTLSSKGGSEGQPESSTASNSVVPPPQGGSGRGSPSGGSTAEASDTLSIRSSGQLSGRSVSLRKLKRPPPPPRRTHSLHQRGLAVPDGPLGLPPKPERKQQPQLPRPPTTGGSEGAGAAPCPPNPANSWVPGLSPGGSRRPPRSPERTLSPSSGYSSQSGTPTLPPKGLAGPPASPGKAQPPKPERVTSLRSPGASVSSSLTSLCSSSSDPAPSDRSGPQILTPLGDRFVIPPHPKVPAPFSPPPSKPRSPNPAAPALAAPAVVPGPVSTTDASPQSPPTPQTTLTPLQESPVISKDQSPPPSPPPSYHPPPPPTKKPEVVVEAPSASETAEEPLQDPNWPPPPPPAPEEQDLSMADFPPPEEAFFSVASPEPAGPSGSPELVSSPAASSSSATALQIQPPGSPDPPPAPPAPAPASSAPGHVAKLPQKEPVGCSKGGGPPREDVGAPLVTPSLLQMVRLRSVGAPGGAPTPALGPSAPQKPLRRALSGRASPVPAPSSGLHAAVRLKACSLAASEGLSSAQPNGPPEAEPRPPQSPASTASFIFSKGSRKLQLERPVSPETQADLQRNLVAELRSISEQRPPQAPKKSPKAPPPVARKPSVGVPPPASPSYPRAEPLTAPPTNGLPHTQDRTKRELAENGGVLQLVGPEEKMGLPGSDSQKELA
UniProt Q9Y6Y0: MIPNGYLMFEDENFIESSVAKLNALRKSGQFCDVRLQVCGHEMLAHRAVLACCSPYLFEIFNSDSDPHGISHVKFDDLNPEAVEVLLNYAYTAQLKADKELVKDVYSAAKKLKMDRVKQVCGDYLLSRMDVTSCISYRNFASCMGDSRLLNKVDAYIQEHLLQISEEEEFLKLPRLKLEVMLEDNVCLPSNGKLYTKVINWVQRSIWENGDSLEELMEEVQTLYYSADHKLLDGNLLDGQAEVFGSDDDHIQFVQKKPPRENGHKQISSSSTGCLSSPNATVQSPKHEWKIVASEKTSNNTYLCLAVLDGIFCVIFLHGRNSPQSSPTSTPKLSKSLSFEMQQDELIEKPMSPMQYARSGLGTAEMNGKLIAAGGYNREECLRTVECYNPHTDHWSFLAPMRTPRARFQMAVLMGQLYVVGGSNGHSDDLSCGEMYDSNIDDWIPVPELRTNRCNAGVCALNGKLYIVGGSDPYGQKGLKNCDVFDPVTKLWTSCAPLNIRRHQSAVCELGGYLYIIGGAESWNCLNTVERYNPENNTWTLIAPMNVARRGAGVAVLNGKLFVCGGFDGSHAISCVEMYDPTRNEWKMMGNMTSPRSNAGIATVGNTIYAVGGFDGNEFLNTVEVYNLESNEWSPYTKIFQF

What was measured:
Experiment in all cases: log2 fold change, soluble protein after heating vs DMSO (PISA); higher = thermal stabilisation; K562 cells, 10 uM, 30 min; active = over 0.2 and 3.5 SD of the protein, either way, in both replicates (recomputed)
saracatinib = compound: CN1CCN(CCOc2cc(OC3CCOCC3)c3c(Nc4c(Cl)ccc5c4OCO5)ncnc3c2)CC1 [saracatinib]
How it was run: (§1)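 K562 cells (2×10^6 cells/mL) were treated with 10 μM compound for 30 min, and aliquots were heated for 3 min over 48°C-58°C. Pooled aliquots were extracted in PBS with 0.5% NP-40 at 4°C, and the supernatant after 21,000xg for 90 min was measured by TMTpro 16plex LC-MS/MS with channel sums equalised. Reported thermal stability, relative to control samples and from duplicates, is a log2 fold change.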

sotrastaurin = compound: CN1CCN(c2nc(C3=C(c4c[nH]c5ccccc45)C(=O)NC3=O)c3ccccc3n2)CC1 [sotrastaurin]
How it was run: as §1

alvocidib = compound: CN1CC[C@H](c2c(O)cc(O)c3c(=O)cc(-c4ccccc4Cl)oc23)[C@H](O)C1 [alvocidib]
How it was run: as §1

Tubastatin A = compound: CN1CCc2c(c3ccccc3n2Cc2ccc(C(=O)NO)cc2)C1 [Tubastatin A]
How it was run: as §1

[1] = compound: CNC(=O)C1=CC=CC=C1NC2=NC(=NC=C2Cl)NC3=C(C=C(C=C3)N4CCOCC4)OC
How it was run: as §1

defactinib = compound: CNC(=O)c1ccc(Nc2ncc(C(F)(F)F)c(NCc3nccnc3N(C)S(C)(=O)=O)n2)cc1 [defactinib]
How it was run: as §1

rucaparib = compound: CNCc1ccc(-c2[nH]c3cc(F)cc4c3c2CCNC4=O)cc1 [rucaparib]
How it was run: as §1

[2] = compound: CNc1nc(-c2ccc3c(N)n[nH]c3c2)cc(N2C[C@@H](C(=O)NC3CCCCC3)CC[C@H]2C)n1
How it was run: as §1

encorafenib = compound: COC(=O)N[C@@H](C)CNc1nccc(-c2cn(C(C)C)nc2-c2cc(Cl)cc(NS(C)(=O)=O)c2F)n1 [encorafenib]
How it was run: as §1

[3] = compound: COC(=O)[C@H](CCSC)NC(=O)C1=C(C=C(C=C1)NC[C@H](CS)N)C2=CC=CC=C2
How it was run: as §1

[4] = compound: COC1=CC=C(C=C1)CN2C=CC3=C2C=C(C=C3)C(=O)NO
How it was run: as §1

filanesib = compound: CON(C)C(=O)N1N=C(c2cc(F)ccc2F)S[C@@]1(CCCN)c1ccccc1 [filanesib]
How it was run: as §1

zotarolimus = compound: CO[C@H]1C[C@@H]2CC[C@@H](C)[C@@](O)(O2)C(=O)C(=O)N2CCCC[C@H]2C(=O)O[C@H]([C@H](C)C[C@@H]2CC[C@H](n3cnnn3)[C@H](OC)C2)CC(=O)[C@H](C)/C=C(\C)[C@@H](O)[C@@H](OC)C(=O)[C@H](C)C[C@H](C)/C=C/C=C/C=C/1C [zotarolimus]
How it was run: as §1

idasanutlin = compound: COc1cc(C(=O)O)ccc1NC(=O)[C@@H]1N[C@@H](CC(C)(C)C)[C@](C#N)(c2ccc(Cl)cc2F)[C@H]1c1cccc(Cl)c1F [idasanutlin]
How it was run: as §1

alisertib = compound: COc1cc(Nc2ncc3c(n2)-c2ccc(Cl)cc2C(c2c(F)cccc2OC)=NC3)ccc1C(=O)O [alisertib]
How it was run: as §1

[5] = compound: COc1cc2nc(-c3cc(F)ccc3O)nc(N[C@@H]3CNC[C@H]3C(C)(C)O)c2cc1OC
How it was run: as §1

gefitinib = compound: COc1cc2ncnc(Nc3ccc(F)c(Cl)c3)c2cc1OCCCN1CCOCC1 [gefitinib]
How it was run: as §1

[6] = compound: COc1cccc2cc(-c3nc([C@H]4CC[C@H](C(=O)O)CC4)n4ncnc(N)c34)[nH]c12
How it was run: as §1

lapatinib = compound: CS(=O)(=O)CCNCc1ccc(-c2ccc3ncnc(Nc4ccc(OCc5cccc(F)c5)c(Cl)c4)c3c2)o1 [lapatinib]
How it was run: as §1

pictilisib = compound: CS(=O)(=O)N1CCN(Cc2cc3nc(-c4cccc5[nH]ncc45)nc(N4CCOCC4)c3s2)CC1 [pictilisib]
How it was run: as §1

Measured: log2 fold change

JMJD1C (UniProt Q15652)
inactive: saracatinib 0.008 | sotrastaurin -0.119 | alvocidib -0.069 | Tubastatin A 0.072 | [1] 0 | defactinib -0.073 | rucaparib -0.023 | [2] -0.045 | encorafenib 0.042 | [3] 0.038 | [4] 0.086 | filanesib -0.05 | zotarolimus -0.016 | idasanutlin 0.063 | alisertib -0.01 | [5] -0.004 | gefitinib 0.072 | [6] -0.122 | lapatinib -0.007 | pictilisib 0.052

KIAA1143 (UniProt Q96AT1)
inactive: saracatinib -0.055 | sotrastaurin 0.111 | alvocidib 0.082 | Tubastatin A -0.002 | [1] -0.056 | defactinib 0.026 | rucaparib 0.055 | [2] -0.043 | encorafenib -0.072 | [3] 0.051 | [4] -0.052 | filanesib 0.088 | zotarolimus -0.074 | idasanutlin 0.047 | alisertib -0.103 | [5] 0.056 | gefitinib 0.003 | [6] 0.095 | lapatinib -0.038 | pictilisib -0.052

JTB (UniProt O76095)
inactive: saracatinib -0.033 | sotrastaurin 0.22 | alvocidib -0.114 | Tubastatin A -0.072 | [1] 0.053 | defactinib -0.007 | rucaparib 0.037 | [2] 0.058 | encorafenib -0.038 | [3] 0.124 | [4] 0.147 | filanesib 0.08 | zotarolimus -0.129 | idasanutlin -0.245 | alisertib 0.09 | [5] 0.044 | gefitinib 0.007 | [6] 0.015 | lapatinib -0.011

Reprinted from above (2 entries):
KIAA1143 (UniProt Q96AT1)
inactive: saracatinib -0.055 | sotrastaurin 0.111 | alvocidib 0.082 | Tubastatin A -0.002 | [1] -0.056 | defactinib 0.026 | rucaparib 0.055 | [2] -0.043 | encorafenib -0.072 | [3] 0.051 | [4] -0.052 | filanesib 0.088 | zotarolimus -0.074 | idasanutlin 0.047 | alisertib -0.103 | [5] 0.056 | gefitinib 0.003 | [6] 0.095 | lapatinib -0.038 | pictilisib -0.052

JTB (UniProt O76095)
inactive: saracatinib -0.033 | sotrastaurin 0.22 | alvocidib -0.114 | Tubastatin A -0.072 | [1] 0.053 | defactinib -0.007 | rucaparib 0.037 | [2] 0.058 | encorafenib -0.038 | [3] 0.124 | [4] 0.147 | filanesib 0.08 | zotarolimus -0.129 | idasanutlin -0.245 | alisertib 0.09 | [5] 0.044 | gefitinib 0.007 | [6] 0.015 | lapatinib -0.011

Carrying on:

KLHL11 (UniProt Q9NVR0)
inactive: saracatinib -0.029 | sotrastaurin -0.184 | alvocidib -0.034 | Tubastatin A -0.061 | [1] -0.014 | defactinib -0.057 | rucaparib 0.05 | [2] 0.202 | encorafenib 0.141 | [3] -0.07 | [4] 0.044 | filanesib -0.053 | zotarolimus 0.071 | idasanutlin -0.081 | alisertib -0.174 | [5] -0.008 | gefitinib 0.054 | [6] -0.045 | lapatinib 0.042 | pictilisib 0.034

JUND (UniProt P17535)
inactive: saracatinib 0.031 | sotrastaurin 0.013 | alvocidib 0.027 | Tubastatin A 0.005 | [1] -0.022 | defactinib -0.021 | rucaparib -0.033 | [2] -0.037 | encorafenib 0.023 | [3] -0.05 | [4] -0.089 | filanesib 0.065 | zotarolimus -0.026 | idasanutlin -0.116 | alisertib -0.087 | [5] -0.029 | gefitinib -0.075 | [6] -0.028 | lapatinib 0.041 | pictilisib -0.032

KIAA1191 (UniProt Q96A73)
inactive: saracatinib -0.033 | sotrastaurin 0.027 | alvocidib -0.038 | Tubastatin A 0.034 | [1] 0.061 | defactinib 0.017 | rucaparib -0.064 | [2] -0.046 | encorafenib 0.005 | [3] 0.061 | [4] 0.01 | filanesib -0.048 | zotarolimus -0.007 | idasanutlin -0.016 | alisertib -0.059 | [5] 0.036 | gefitinib 0.024 | [6] 0.199 | lapatinib 0.018 | pictilisib 0.024

JPT1 (UniProt Q9UK76)
inactive: saracatinib 0.031 | sotrastaurin 0.031 | alvocidib -0.015 | Tubastatin A 0.015 | [1] -0.044 | defactinib -0.023 | rucaparib 0.003 | [2] 0.013 | encorafenib -0.006 | [3] 0.019 | [4] 0.077 | filanesib -0.018 | zotarolimus 0.005 | idasanutlin 0.023 | alisertib -0.048 | [5] -0.086 | gefitinib 0.022 | [6] 0.048 | lapatinib 0.042 | pictilisib 0.012

KCTD5 (UniProt Q9NXV2)
inactive: saracatinib 0.03 | sotrastaurin 0.097 | alvocidib -0.094 | Tubastatin A 0.005 | [1] 0.015 | defactinib -0.039 | rucaparib -0.015 | [2] -0.079 | encorafenib 0.084 | [3] 0.03 | [4] 0.25 | filanesib 0.138 | zotarolimus -0.067 | idasanutlin 0.028 | alisertib -0.114 | [5] 0.078 | gefitinib 0.023 | [6] 0.012 | lapatinib -0.003 | pictilisib 0.14

KDM8 isoform 3 (UniProt Q8N371)
inactive: saracatinib 0.065 | sotrastaurin 0.023 | alvocidib -0.138 | Tubastatin A 0.021 | [1] -0.045 | defactinib 0.035 | rucaparib 0.008 | [2] -0.064 | encorafenib 0.016 | [3] 0.009 | [4] 0.083 | filanesib -0.025 | zotarolimus 0.025 | idasanutlin -0.183 | alisertib -0.041 | [5] 0.055 | gefitinib 0.019 | [6] 0.082 | lapatinib 0.019 | pictilisib 0.061

JPT2 isoform 3 (UniProt Q9H910)
inactive: saracatinib 0.002 | sotrastaurin 0.02 | alvocidib 0 | Tubastatin A -0.015 | [1] -0.031 | defactinib -0.008 | rucaparib -0.003 | [2] -0.019 | encorafenib -0.024 | [3] 0.063 | [4] 0.017 | filanesib -0.015 | zotarolimus 0.015 | idasanutlin 0.246 | alisertib -0.057 | [5] -0.015 | gefitinib 0.003 | [6] 0.039 | lapatinib 0.004 | pictilisib 0.019

KIAA1522 isoform 2 (UniProt Q9P206)
inactive: saracatinib 0.002 | sotrastaurin -0.112 | alvocidib -0.039 | Tubastatin A 0.165 | [1] -0.009 | defactinib 0.092 | rucaparib 0.157 | [2] -0.082 | encorafenib 0.033 | [3] 0.003 | [4] 0.085 | filanesib 0.399 | zotarolimus 0.025 | idasanutlin 0.655 | alisertib -0.099 | [5] -0.08 | gefitinib 0.066 | [6] -0.092 | lapatinib 0.037 | pictilisib -0.017

KATNB1 (UniProt Q9BVA0)
inactive: saracatinib 0.002 | sotrastaurin -0.004 | alvocidib 0.009 | Tubastatin A -0.045 | [1] -0.016 | defactinib -0.077 | rucaparib -0.002 | [2] -0.03 | encorafenib 0.083 | [3] 0.042 | [4] -0.069 | filanesib 0.01 | zotarolimus -0.033 | idasanutlin -0.018 | alisertib -0.041 | [5] 0.001 | gefitinib 0.003 | [6] -0.067 | lapatinib 0.048 | pictilisib -0.034

KCNN4 (UniProt O15554)
inactive: saracatinib 0.015 | sotrastaurin -0.021 | alvocidib 0.049 | Tubastatin A -0.117 | [1] 0.004 | defactinib 0 | rucaparib 0.041 | [2] -0.125 | encorafenib 0.061 | [3] 0.014 | [4] -0.153 | filanesib -0.176 | zotarolimus 0.128 | idasanutlin -0.036 | alisertib 0.071 | [5] -0.189 | gefitinib -0.125 | [6] 0.121 | lapatinib 0.129

IVNS1ABP (UniProt Q9Y6Y0)
inactive: saracatinib -0.101 | sotrastaurin -0.054 | alvocidib -0.009 | Tubastatin A 0.033 | [1] -0.069 | defactinib -0.049 | rucaparib 0.043 | [2] 0.084 | encorafenib 0.026 | [3] -0.023 | [4] 0.089 | filanesib 0.063 | zotarolimus 0.067 | idasanutlin -0.08 | alisertib 0.038 | [5] 0.028 | gefitinib -0.056 | [6] -0.062 | lapatinib 0.069 | pictilisib -0.059

KIF5A (UniProt Q12840)
inactive: saracatinib 0 | sotrastaurin -0.006 | alvocidib -0.019 | Tubastatin A 0.019 | [1] 0.009 | defactinib -0.038 | rucaparib 0.005 | [2] -0.004 | encorafenib 0.021 | [3] 0.028 | [4] -0.049 | filanesib 0.028 | zotarolimus -0.015 | idasanutlin -0.013 | alisertib -0.031 | [5] 0.043 | gefitinib 0.009 | [6] 0.012 | lapatinib -0.043 | pictilisib -0.034
